Values from PubChem BioAssay AID504764 (Drosophila RNAi Screening Center, 2011).

- Assay: 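Genome-wide screen for regulators of Notch-driven gene expression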 (primary screen)
- Cell system: Drosophila Kc167 cells
- Reagent: long dsRNA against Drosophila genes
- Duration: about 5 days (4 days dsRNA, then 24 h after transfection)
- Conditions: transfection of constitutively active membrane-tethered Notch lacking the extracellular domain, read 24 h later
- Read-out: 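Light from a Notch-responsive E(spl)m3 luciferase reporter under active Notch, with control-promoter and no-Notch reporter wells to normalise; raw counts from paired wells a and b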
- Scale: induced reporter light, run 1, well a and induced reporter light, run 1, well b: higher = more light from the Notch target reporter with active Notch; control promoter light, run 1, well a and control promoter light, run 1, well b: higher = more light from the viral control promoter (cell number, transfection, viability); uninduced reporter light, run 1, well a: higher = more light from the Notch target reporter without active Notch
- Call rule: 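Wells with low control signal or poorly matching duplicates excluded; duplicates averaged; per source plate, z beyond ±2 for induced/control log2 ratio or beyond ±1.8 for induced/uninduced marks a hit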
- Calls: active = modifier hit (raised or lowered Notch signal); inactive = not a hit
The screen tested about 22,000 reagents; this is a random part of those that have a named target and a result. Of all reagents, 403 (1.9%) are marked active. 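Unnormalised raw counts per well; ratio z-scores behind the hit calls and whether each hit raises or lowers signal are not deposited.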 Not given: the amount of reagent.

predicted target | dsRNA | induced reporter light, run 1, well a | induced reporter light, run 1, well b | control promoter light, run 1, well a | control promoter light, run 1, well b | uninduced reporter light, run 1, well a | activity call
CG10910 | DRSC06007 | 31870 | 31515 | 37755 | 21875 | 3335 | inactive
Sbds | DRSC10992 | 1.21e5 | 1.33e5 | 85455 | 51690 | 11405 | inactive
miple2 | DRSC08723 | 1.92e5 | 1.25e5 | 1.62e5 | 1.59e5 | 9390 | inactive
Roc1a | DRSC18483 | 51225 | 44450 | 69615 | 84075 | 5060 | inactive
RpLP1 | DRSC00783 | 48630 | 48055 | 53330 | 53075 | 3790 | inactive
SdhCL | DRSC16078 | 67755 | 45940 | 54615 | 44280 | 2315 | inactive
CG4382 | DRSC02743 | 1.36e5 | 1.75e5 | 71260 | 93710 | 19175 | inactive
CG5662 | DRSC19957 | 1.64e5 | 1.88e5 | 2.85e5 | 2.67e5 | 12638 | inactive
Nrt | DRSC11237 | 1.51e5 | 1.67e5 | 86160 | 1.02e5 | 11840 | inactive
REPTOR | DRSC14626 | 1.25e5 | 1.46e5 | 94345 | 96785 | 10940 | active
SLC5A11 | DRSC03088 | 1.56e5 | 1.67e5 | 1.73e5 | 1.68e5 | 13475 | inactive
tup | DRSC03627 | 2.00e5 | 2.03e5 | 2.03e5 | 1.61e5 | 17165 | inactive
Sgt | DRSC02812 | 1.06e5 | 1.06e5 | 1.01e5 | 94395 | 8400 | inactive
lft | DRSC02236 | 1.13e5 | 1.35e5 | 58560 | 84075 | 14038 | inactive
fs(1)Yb | DRSC18777 | 1.15e5 | 98840 | 1.21e5 | 1.71e5 | 7095 | inactive
GstE5 | DRSC06675 | 43435 | 41375 | 42360 | 44855 | 4820 | inactive
SerT | DRSC04655 | 1.38e5 | 1.29e5 | 1.23e5 | 1.34e5 | 9170 | inactive
CG10041 | DRSC14179 | 82585 | 92735 | 93235 | 99335 | 5385 | inactive
speck | DRSC04608 | 1.63e5 | 1.53e5 | 1.36e5 | 1.39e5 | 13810 | inactive
CG1785 | DRSC18139 | 1.59e5 | 1.36e5 | 1.94e5 | 2.17e5 | 10140 | inactive
CG30289 | DRSC03870 | 79840 | 60065 | 68795 | 69515 | 8315 | inactive
CG12171 | DRSC12200 | 1.08e5 | 90420 | 76400 | 65730 | 7610 | inactive
CG14223 | DRSC19580 | 1.12e5 | 1.07e5 | 1.08e5 | 1.73e5 | 10985 | inactive
CG42346 | DRSC20622 | 94075 | 99380 | 1.30e5 | 1.58e5 | 10570 | inactive
CG42346 | DRSC20644 | 1.15e5 | 1.09e5 | 1.51e5 | 1.64e5 | 9950 | inactive
f-cup | DRSC14139 | 1.18e5 | 1.22e5 | 49580 | 46070 | 9790 | inactive
CG8087 | DRSC16375 | 2.11e5 | 2.32e5 | 2.19e5 | 2.36e5 | 17600 | inactive
CG13842 | DRSC14692 | 1.68e5 | 1.37e5 | 1.78e5 | 1.97e5 | 13425 | inactive
Lrt | DRSC06045 | 1.09e5 | 1.08e5 | 1.85e5 | 1.88e5 | 6595 | inactive
RpL13A | DRSC12265 | 41890 | 61740 | 47360 | 48445 | 3310 | inactive
CG15450 | DRSC20522 | 66040 | 72170 | 53845 | 63250 | 6815 | inactive
kmr | DRSC12986 | 1.80e5 | 1.46e5 | 2.51e5 | 2.02e5 | 15780 | inactive
kmr | DRSC14827 | 1.83e5 | 1.71e5 | 1.93e5 | 1.85e5 | 16350 | inactive
kmr | DRSC14828 | 2.97e5 | 2.53e5 | 3.35e5 | 3.24e5 | 20510 | inactive
kmr | DRSC16472 | 1.01e5 | 92760 | 64230 | 53885 | 8185 | inactive
